Results from publication PMC5703867, “Development of Novel Promiscuous Anti-Chemokine Peptibodies for Treating Autoimmunity and Inflammation” (Frontiers in Immunology, 2017).
Results are given in words; binding and its absence hold for the method and conditions named. Some entries that bind do so weakly or less than the wild type.

By UniProt entry, the sequences of proteins in these tests, tags left out. Where a name states a change or a piece, a line headed by the entry shows the natural chain unless it says otherwise. Residues count along the entry.
UniProt P13500, residues 24-99: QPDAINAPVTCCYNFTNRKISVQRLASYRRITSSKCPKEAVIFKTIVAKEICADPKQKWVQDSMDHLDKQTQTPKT
UniProt P13236, residues 24-92: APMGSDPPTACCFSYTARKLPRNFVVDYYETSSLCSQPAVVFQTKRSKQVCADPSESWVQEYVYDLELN
UniProt P10147, residues 24-92: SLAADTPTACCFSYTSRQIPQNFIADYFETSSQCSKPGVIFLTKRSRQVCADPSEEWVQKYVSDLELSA
UniProt P13501, residues 24-91: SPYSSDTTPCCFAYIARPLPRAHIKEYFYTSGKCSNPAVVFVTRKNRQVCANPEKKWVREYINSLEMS
UniProt Q99731, residues 22-98: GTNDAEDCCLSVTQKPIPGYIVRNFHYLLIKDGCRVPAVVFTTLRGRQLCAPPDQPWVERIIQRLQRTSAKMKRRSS
UniProt P69168: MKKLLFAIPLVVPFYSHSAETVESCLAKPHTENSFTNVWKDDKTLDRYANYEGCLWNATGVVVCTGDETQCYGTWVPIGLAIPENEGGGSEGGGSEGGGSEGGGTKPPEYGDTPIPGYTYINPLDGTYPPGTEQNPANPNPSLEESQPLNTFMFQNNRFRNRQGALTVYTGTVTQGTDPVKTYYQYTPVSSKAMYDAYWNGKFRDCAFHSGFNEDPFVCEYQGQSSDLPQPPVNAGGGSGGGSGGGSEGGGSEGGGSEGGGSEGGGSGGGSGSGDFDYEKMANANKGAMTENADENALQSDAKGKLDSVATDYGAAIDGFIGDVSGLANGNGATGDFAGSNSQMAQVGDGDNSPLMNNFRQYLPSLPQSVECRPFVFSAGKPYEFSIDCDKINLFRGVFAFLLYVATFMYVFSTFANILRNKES

T1: CXCL11 (human) (UniProt O14625)
T1 sequence: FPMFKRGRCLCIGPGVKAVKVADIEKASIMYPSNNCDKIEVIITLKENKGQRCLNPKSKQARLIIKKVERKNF

T2: CXCL9 (human) (UniProt Q07325)
T2 sequence: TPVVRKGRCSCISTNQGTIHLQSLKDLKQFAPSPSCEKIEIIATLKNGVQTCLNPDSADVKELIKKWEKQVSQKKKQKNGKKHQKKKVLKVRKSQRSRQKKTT

T3: CXCL13 (human) (UniProt O43927)
T3 sequence: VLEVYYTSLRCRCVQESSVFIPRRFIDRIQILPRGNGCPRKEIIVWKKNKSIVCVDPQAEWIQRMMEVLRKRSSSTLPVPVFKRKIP


What was measured:
CCL2 [1] = target: T4, CCL2 (human, UniProt P13500 24-99); experiment: ELISA; phage ELISA: chemokine coated on maxisorp plates (0.1-1.0 µg/ml in 0.1 M NaHCO3, pH 8.6), BSA block, individual phages 10^7-10^9 PFU per well for 45 min at RT, detected with HRP/anti-M13 antibody, OD450; only the target purified
T4 construct: CCL2, human, recombinant; source: bought: PeproTech

CCL4 (human) = CCL4 (human) (UniProt P13236); experiment: ELISA; chemokines coated at 150 ng/well in 0.1 M carbonate pH 9.5, 4% BSA block, BKT130Fc at 0, 1, 10 and 50 µg/ml for 2 h at RT, detected with goat anti-human IgG HRP, O.D. 450 nm
CCL3 (human) = CCL3 (human) (UniProt P10147); experiment: as above
CXCL11 (human) = target: T1, CXCL11 (human); experiment: as above
CCL5 (human) = CCL5 (human) (UniProt P13501); experiment: as above
CXCL9 (human) = target: T2, CXCL9 (human); experiment: as above
CCL19 (human) = CCL19 (human) (UniProt Q99731); experiment: as above
CCL2 [2] = target: T4, CCL2; experiment: as above
CXCL13 (human) = target: T3, CXCL13 (human); experiment: as above

| Molecule | binding (CCL2 [1]) | binding (CCL4 (human)) | binding (CCL3 (human)) | binding (CXCL11 (human)) | binding (CCL5 (human)) | binding (CXCL9 (human)) | binding (CCL19 (human)) | binding (CCL2 [2]) | binding (CXCL13 (human)) |
| --- | --- | --- | --- | --- | --- | --- | --- | --- | --- |
| phage carrying the BKT130 peptide (from UniProt P69168 19-424) | binds |  |  |  |  |  |  |  |  |
| SIPSHSIHSAKAGGGSKG (Fc fusion) [BKT130Fc peptibody] |  | no binding (tested: 50 µg/ml) | no binding (tested: 50 µg/ml) | binds | binds | binds | no binding (tested: 50 µg/ml) | binds weakly | no binding (tested: 50 µg/ml) |
